In experiment [1] the target is WRN HRDC domain (1,142–1,242) (human) (UniProt Q14191). The experiment in a line: NMR titration; 1H-15N SoFast HMQC of 30 μM 15N-labelled WRN HRDC without or with 250 μM unlabelled WRN helicase (531–950); Hepes 50 mM pH 7.5, NaCl 300 mM, ATP 1 mM, MgSO4 5 mM, TCEP 1 mM, D2O 10%; 298 K; both purified.
Experiment [2] deals with WRN helicase core (517–1,093) (human) (UniProt Q14191). Briefly: crystal structure; WRN (517–1,093) co-crystallised with ADP, AlCl3, NaF and MgCl2; 1 M Na Acetate, 0.1 M cacodylate pH 6.5; 2.2 Å; contents of the asymmetric unit; both purified.

Amino acid sequences for entries named in this document (tags omitted). Residues count along the entry.
WRN helicase core (517–1,093) (Q14191, residues 517-1093): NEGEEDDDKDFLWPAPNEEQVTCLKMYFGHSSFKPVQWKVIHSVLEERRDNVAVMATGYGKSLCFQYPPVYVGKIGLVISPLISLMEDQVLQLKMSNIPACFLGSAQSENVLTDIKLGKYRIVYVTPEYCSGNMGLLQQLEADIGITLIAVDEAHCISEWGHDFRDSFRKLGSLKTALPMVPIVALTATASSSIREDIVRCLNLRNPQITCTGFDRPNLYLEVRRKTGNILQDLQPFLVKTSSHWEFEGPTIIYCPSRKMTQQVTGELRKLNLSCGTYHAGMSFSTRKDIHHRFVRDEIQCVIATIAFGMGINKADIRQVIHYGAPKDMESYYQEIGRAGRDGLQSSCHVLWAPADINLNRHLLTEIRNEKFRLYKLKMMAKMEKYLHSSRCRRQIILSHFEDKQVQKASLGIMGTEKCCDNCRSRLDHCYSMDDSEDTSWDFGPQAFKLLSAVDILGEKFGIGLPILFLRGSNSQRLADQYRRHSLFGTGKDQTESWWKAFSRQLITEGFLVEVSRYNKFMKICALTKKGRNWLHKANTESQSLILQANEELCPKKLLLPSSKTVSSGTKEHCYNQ
WRN helicase (residues 531–950) (Q14191, residues 531-950): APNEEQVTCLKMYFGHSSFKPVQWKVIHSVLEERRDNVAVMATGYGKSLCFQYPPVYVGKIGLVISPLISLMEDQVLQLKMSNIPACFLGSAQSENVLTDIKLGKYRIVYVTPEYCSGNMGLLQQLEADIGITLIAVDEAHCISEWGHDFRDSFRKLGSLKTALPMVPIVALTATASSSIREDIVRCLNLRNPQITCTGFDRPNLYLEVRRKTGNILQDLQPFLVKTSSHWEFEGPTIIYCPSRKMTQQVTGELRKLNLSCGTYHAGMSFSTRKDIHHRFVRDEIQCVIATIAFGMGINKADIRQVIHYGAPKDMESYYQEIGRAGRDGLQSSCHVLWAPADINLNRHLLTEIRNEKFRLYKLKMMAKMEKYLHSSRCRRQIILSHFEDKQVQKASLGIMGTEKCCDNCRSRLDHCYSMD
WRN HRDC domain (1,142–1,242) (Q14191, residues 1142-1242): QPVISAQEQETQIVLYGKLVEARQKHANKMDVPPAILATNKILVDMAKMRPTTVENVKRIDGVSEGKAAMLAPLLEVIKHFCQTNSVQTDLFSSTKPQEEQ

No constants are given. Whether binding was seen depends on the method and setting. Some binding calls cover weakened binding; strength is not graded here.

In the case of “WRN helicase (residues 531–950) (from UniProt Q14191 531-950) (domain or fragment)”, the binding entry in experiment [1] is “binds weakly”. In the case of “WRN helicase core (517–1,093) (from UniProt Q14191 517-1093) (domain or fragment)”, the binding result in experiment [2] is on record as “no binding”.

Source of the values: article PMC7671478, “Structure of the helicase core of Werner helicase, a key target in microsatellite instability cancers”.
